Patent US20130096282A1
These are yes or no findings as the source states them, for the method shown. Some results given as binding are weak or reduced against the parent protein; the word gives no strength. Tags and fused reporters may be left off the sequences shown.

Target: T1, recombinantly-expressed P. aeruginosa flagellin type B (Pseudomonas aeruginosa) (UniProt P72151)
T1 sequence: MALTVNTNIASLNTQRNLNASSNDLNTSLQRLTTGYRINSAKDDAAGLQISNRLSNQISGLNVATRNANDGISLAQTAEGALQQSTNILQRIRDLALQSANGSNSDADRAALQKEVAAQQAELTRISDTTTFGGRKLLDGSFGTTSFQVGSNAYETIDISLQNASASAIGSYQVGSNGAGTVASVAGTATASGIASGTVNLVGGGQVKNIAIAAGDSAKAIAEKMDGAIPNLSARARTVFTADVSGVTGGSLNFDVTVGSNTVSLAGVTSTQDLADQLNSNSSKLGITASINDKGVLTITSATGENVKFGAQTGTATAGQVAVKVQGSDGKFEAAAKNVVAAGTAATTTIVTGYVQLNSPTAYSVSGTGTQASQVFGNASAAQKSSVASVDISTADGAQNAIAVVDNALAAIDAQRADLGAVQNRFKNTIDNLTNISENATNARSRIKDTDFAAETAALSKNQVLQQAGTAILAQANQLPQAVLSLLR
Experiment: ELISA on plates coated with recombinant flagellin type B

B1: fully human recombinant mAb LST-008 (antibody, V domains shown)
VH: QVRLVQSGTEVKKPGASVRVSCKASGYTFSNYYMYWVRQAPGQGLEWMAMINPSGGSTRYAQKFQGRVTMTRDTSTSTVYMELSSLRSEDTAVYYCARADSGSYFGYWGQGTLVTVSS
VL: DIQLTQSPSFLSASVGDRVPITCRASQGISTHLAWYQQKPGKAPKLLIYAASTLQSGVPSRFSGSGSGTEFTLTISSLQPEDSATYYCQQLKSYPLTFGGGTKVEIKR
  binding: binds
